Values from PubChem BioAssay AID1259308 (NCATS, 2017).
The whole screen tested about 59,000 reagents; this is an unselected part. About 1,510 of all reagents (2.6%) were called active. 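Calls use total luciferase alone and ignore viability, so some active siRNAs may act by altering cell number.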 The numbers tell different reagents against one gene apart. Not all columns of the deposit are shown. Reagent sequences are not shown.

Test: 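Genes whose loss raises luciferase production in HEK293 cells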 (primary screen)
Cells: human HEK293 embryonic kidney cells stably expressing firefly luciferase (HEK-CMV-Luc2-Hygro)
Reagent: single siRNA against human genes, 0.8 pmol siRNA per well
Timing: 72 h
Measured: 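Luciferase light (ONE-Glo) measured on one replicate plate set and viability (CellTiter-Glo) on the other, scaled to a negative control siRNA, with robust z-scores and luciferase per cell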
Scale: total luciferase, z-score and total luciferase, % of control: higher = more reporter protein produced
Rule for the call: 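An siRNA counts as active if its total luciferase robust z-score exceeds 3; genes with two or more such siRNAs out of three were retested with fresh siRNAs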
Meaning of the calls: active = raised luciferase; inactive = no rise

KCNC3 (potassium voltage-gated channel subfamily C member 3) #1 scored total luciferase, z-score 1.11; total luciferase, % of control 104; inactive. Silencing of KCNC3 (potassium voltage-gated channel subfamily C member 3) #2 resulted in: total luciferase, z-score 0.0517; total luciferase, % of control 82.9; inactive. After knock-down of KCNC3 (potassium voltage-gated channel subfamily C member 3) #3 the results were total luciferase, z-score 0.254; total luciferase, % of control 86.9; inactive. Knock-down of LINC00992 (long independently transcribed non-coding RNA 992) #1 gave: total luciferase, z-score 0.52; total luciferase, % of control 92.2; inactive. Knock-down of LINC00992 (long independently transcribed non-coding RNA 992) #2 resulted in: total luciferase, z-score 0.0433; total luciferase, % of control 82.7; inactive. With knock-down of LINC00992 (long independently transcribed non-coding RNA 992) #3, the record shows total luciferase, z-score 3.46; total luciferase, % of control 151; active.

Against NREPP1 (NREP pseudogene 1) #1 the deposit lists total luciferase, z-score -0.34; total luciferase, % of control 75.1; inactive. Against NREPP1 (NREP pseudogene 1) #2 the deposit lists total luciferase, z-score -0.899; total luciferase, % of control 64; inactive. NREPP1 (NREP pseudogene 1) #3 scored total luciferase, z-score 1.87; total luciferase, % of control 119; inactive. Depletion of OGDH (oxoglutarate dehydrogenase) #1 came out at: total luciferase, z-score -1.74; total luciferase, % of control 47.3; inactive. Against OGDH (oxoglutarate dehydrogenase) #2, the entry reads total luciferase, z-score -0.976; total luciferase, % of control 62.5; inactive. OGDH (oxoglutarate dehydrogenase) #3 gave total luciferase, z-score -2.51; total luciferase, % of control 31.9; inactive.
